Results as given in the supplement of paper PMC10849652.
This is one part of the list.

The chains behind the UniProt entries cited, without tags or fusion partners. Where a name states a change or a piece, a line headed by the entry shows the natural chain unless it says otherwise.
UniProt Q9NRY5: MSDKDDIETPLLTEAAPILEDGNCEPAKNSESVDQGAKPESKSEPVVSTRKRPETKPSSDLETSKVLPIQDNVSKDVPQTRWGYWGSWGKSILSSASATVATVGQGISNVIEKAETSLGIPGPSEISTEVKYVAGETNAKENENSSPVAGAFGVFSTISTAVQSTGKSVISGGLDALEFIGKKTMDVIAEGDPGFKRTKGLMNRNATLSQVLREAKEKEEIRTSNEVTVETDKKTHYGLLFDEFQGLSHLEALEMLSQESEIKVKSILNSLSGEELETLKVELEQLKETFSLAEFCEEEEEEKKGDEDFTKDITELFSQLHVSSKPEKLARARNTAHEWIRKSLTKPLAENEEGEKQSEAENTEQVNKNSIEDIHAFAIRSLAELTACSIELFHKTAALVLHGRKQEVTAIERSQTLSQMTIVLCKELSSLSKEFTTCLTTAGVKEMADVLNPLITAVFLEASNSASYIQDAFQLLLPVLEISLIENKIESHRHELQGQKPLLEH
UniProt Q8IYI6: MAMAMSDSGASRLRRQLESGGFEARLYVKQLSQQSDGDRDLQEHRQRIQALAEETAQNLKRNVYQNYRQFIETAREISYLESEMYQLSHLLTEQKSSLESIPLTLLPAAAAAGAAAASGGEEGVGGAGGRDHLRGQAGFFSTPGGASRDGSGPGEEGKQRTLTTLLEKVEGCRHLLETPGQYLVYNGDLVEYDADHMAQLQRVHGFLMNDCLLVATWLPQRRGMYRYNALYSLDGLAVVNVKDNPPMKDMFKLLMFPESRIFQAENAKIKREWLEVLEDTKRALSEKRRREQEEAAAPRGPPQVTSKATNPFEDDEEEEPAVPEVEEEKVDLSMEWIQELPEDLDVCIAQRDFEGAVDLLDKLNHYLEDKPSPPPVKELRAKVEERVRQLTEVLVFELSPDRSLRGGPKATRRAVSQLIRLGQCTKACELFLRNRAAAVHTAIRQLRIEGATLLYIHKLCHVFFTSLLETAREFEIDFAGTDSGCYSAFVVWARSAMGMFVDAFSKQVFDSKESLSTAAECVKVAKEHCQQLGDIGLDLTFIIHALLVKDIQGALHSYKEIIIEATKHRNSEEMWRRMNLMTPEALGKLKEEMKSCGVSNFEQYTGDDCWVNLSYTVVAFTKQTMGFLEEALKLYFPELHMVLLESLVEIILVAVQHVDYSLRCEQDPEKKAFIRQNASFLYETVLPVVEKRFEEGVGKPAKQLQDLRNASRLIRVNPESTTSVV
UniProt Q92520: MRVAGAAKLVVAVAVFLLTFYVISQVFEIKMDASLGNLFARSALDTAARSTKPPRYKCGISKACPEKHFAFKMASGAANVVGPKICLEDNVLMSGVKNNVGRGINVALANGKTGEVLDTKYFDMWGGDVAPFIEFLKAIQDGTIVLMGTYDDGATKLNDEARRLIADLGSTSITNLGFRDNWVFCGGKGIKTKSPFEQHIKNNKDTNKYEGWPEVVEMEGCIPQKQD
UniProt Q96GK7: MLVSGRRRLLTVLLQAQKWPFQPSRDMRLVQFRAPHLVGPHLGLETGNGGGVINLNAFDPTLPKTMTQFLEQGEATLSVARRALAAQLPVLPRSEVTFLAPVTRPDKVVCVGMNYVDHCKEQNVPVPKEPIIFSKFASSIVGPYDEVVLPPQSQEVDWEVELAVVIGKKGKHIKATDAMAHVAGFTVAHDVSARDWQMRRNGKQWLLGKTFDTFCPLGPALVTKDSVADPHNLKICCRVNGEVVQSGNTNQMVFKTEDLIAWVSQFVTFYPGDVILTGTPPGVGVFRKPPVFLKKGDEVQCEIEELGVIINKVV
UniProt P98173: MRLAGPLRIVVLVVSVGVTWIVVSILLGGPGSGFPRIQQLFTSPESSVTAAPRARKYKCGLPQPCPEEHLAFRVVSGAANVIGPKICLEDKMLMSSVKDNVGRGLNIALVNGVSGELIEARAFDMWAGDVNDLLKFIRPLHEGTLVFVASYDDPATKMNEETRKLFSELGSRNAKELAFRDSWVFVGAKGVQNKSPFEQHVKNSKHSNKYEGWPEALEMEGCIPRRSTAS
UniProt Q5RKV6, whole entry, looked up: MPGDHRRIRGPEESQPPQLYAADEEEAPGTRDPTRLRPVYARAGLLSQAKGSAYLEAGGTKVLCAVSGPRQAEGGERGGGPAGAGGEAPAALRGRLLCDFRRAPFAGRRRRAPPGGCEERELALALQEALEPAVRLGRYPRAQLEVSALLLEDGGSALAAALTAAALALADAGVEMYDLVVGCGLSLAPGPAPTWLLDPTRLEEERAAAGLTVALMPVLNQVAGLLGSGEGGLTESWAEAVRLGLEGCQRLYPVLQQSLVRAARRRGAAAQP
UniProt Q8TAV0: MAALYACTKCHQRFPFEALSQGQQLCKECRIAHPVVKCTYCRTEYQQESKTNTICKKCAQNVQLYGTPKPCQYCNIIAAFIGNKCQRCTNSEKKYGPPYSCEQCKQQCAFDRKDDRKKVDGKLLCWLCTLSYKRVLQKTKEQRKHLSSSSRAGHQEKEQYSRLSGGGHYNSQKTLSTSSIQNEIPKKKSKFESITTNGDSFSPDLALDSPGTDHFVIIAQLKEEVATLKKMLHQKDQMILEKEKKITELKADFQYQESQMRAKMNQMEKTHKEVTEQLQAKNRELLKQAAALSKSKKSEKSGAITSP
UniProt Q9NPD3, whole entry, looked up: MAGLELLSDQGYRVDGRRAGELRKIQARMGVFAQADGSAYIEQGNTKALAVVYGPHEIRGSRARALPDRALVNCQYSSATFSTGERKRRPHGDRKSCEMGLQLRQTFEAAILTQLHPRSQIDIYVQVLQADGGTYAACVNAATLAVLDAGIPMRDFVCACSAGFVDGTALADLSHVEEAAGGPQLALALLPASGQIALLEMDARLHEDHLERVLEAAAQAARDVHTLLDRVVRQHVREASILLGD
UniProt Q9NQT5, whole entry, looked up: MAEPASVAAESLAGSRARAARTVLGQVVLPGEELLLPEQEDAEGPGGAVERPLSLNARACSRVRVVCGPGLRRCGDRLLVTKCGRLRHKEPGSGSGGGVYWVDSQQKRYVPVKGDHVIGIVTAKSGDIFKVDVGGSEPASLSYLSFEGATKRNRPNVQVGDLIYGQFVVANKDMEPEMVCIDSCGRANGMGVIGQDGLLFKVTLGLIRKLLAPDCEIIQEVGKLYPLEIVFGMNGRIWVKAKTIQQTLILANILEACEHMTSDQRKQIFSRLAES
UniProt Q5W0V3: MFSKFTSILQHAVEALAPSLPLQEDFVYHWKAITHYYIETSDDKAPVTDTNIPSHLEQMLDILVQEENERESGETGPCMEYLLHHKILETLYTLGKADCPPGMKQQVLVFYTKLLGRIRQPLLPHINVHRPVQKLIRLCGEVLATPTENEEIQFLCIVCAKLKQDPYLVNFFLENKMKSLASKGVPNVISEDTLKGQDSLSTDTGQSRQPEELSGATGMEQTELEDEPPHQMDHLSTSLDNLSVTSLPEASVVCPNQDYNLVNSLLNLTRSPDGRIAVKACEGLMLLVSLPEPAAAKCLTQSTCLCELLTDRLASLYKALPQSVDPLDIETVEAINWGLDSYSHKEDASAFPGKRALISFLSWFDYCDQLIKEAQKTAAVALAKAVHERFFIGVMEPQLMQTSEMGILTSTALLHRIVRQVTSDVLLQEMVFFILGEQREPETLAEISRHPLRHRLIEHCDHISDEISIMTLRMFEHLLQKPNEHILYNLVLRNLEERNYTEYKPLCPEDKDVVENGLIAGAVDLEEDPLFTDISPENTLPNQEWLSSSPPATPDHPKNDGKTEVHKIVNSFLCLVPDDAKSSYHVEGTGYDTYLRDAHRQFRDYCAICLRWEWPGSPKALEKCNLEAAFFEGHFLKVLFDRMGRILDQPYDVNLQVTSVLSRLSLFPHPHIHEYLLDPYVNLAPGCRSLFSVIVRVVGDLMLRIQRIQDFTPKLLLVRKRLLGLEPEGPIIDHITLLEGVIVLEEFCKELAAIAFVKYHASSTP
UniProt Q86X53: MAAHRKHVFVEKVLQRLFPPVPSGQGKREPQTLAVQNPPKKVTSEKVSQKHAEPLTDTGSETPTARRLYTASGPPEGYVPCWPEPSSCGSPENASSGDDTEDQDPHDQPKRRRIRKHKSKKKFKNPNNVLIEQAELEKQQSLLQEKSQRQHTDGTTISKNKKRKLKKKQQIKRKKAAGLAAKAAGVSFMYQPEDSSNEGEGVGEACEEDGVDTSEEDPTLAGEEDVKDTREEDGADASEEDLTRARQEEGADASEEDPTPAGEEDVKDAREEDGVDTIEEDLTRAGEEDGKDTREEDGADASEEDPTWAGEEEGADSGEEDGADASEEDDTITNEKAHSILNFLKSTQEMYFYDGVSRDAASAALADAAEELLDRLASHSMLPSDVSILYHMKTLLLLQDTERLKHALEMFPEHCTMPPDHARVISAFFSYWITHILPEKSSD
UniProt P38117: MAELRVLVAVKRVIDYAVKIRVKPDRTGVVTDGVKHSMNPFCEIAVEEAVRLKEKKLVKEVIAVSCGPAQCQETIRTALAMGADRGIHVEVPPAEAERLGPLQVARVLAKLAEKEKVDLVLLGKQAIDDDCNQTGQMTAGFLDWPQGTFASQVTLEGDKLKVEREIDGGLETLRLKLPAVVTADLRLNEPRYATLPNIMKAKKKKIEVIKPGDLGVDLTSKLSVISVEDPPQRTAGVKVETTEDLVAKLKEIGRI
UniProt Q86YB8: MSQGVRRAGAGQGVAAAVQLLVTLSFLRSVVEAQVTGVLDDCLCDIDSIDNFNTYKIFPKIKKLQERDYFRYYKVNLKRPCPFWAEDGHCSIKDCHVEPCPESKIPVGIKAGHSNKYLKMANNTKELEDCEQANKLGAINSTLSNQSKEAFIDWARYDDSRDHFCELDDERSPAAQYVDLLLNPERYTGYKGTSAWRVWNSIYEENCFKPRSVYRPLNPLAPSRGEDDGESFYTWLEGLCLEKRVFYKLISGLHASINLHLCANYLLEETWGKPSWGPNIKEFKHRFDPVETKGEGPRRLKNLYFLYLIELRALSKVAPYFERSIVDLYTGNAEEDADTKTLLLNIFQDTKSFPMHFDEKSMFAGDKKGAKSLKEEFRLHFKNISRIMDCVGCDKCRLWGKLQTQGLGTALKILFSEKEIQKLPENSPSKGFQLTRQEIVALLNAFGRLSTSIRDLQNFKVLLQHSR
UniProt O00471: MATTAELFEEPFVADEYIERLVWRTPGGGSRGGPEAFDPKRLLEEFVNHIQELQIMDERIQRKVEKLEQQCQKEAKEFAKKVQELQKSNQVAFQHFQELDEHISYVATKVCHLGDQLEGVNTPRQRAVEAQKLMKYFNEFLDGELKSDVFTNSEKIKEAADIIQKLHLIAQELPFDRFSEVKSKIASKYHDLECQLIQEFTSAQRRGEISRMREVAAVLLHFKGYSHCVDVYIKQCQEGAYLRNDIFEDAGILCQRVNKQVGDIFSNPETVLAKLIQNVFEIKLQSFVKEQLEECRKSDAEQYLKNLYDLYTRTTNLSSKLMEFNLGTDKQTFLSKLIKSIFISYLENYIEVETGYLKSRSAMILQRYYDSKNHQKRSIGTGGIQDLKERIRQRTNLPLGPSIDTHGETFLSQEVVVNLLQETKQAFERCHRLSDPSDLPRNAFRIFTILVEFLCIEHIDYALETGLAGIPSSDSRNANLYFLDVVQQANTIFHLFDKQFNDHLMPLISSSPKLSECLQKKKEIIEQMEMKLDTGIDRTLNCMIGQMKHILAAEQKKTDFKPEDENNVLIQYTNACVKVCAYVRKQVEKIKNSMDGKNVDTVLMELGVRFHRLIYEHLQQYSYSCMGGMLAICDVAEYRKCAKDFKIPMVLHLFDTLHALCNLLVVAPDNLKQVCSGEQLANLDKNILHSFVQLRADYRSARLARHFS

Columns and labels:
Experiment in all cases: log2 fold change, soluble protein after heating vs DMSO (PISA); higher = thermal stabilisation; K562 lysate, 10 uM; active = over 0.2 and 3.5 SD of the protein, either way, in both replicates (recomputed)
vemurafenib = compound: CCCS(=O)(=O)Nc1ccc(F)c(C(=O)c2c[nH]c3ncc(-c4ccc(Cl)cc4)cc23)c1F [vemurafenib]
Procedure, shortened: (§1)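 Log-two fold change in thermal stability relative to solvent controls is reported from duplicates. For each sample, crude K562 extract from dounce-homogenised pellets in PBS pH 7.4 with 1 mM MgCl2, at 1 mg/mL protein, was treated with 10 μM compound for 30 min. Aliquots heated for 3 min across 48°C-58°C were pooled, brought to 0.5% NP-40 at 4°C and cleared at 21,000xg for 90 min. The supernatant was quantified by TMTpro 16plex LC-MS/MS with channel sums equalised.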

[1] = compound: CCCS(=O)(=O)Nc1ccc(F)c(C(=O)c2c[nH]c3ncc(Cl)cc23)c1F
Procedure, shortened: as §1

barasertib = compound: CCN(CCCOc1ccc2c(Nc3cc(CC(=O)Nc4cccc(F)c4)[nH]n3)ncnc2c1)CCOP(=O)(O)O [barasertib]
Procedure, shortened: as §1

[2] = compound: CC[C@@H]1C(=O)N(C)c2cnc(Nc3ccc(C(=O)NC4CCN(C)CC4)cc3OC)nc2N1C1CCCC1
Procedure, shortened: as §1

volasertib = compound: CC[C@@H]1C(=O)N(C)c2cnc(Nc3ccc(C(=O)N[C@H]4CC[C@H](N5CCN(CC6CC6)CC5)CC4)cc3OC)nc2N1C(C)C [volasertib]
Procedure, shortened: as §1

[3] = compound: CCn1c(C(=O)N(C2CC2)C2CC2)cc2c3c(ncn3C)c(Nc3cc(C)n(C)n3)nc21
Procedure, shortened: as §1

[4] = compound: CCn1cc(-c2ccnc3[nH]c(-c4cccc(CN(C)C)c4)cc23)c(-c2ccc(NC(=O)N(C)C)cc2)n1
Procedure, shortened: as §1

[5] = compound: CN1CCC(CNc2ccc3ncc(-c4cccc(OC(F)(F)F)c4)n3n2)CC1
Procedure, shortened: as §1

saracatinib = compound: CN1CCN(CCOc2cc(OC3CCOCC3)c3c(Nc4c(Cl)ccc5c4OCO5)ncnc3c2)CC1 [saracatinib]
Procedure, shortened: as §1

sotrastaurin = compound: CN1CCN(c2nc(C3=C(c4c[nH]c5ccccc45)C(=O)NC3=O)c3ccccc3n2)CC1 [sotrastaurin]
Procedure, shortened: as §1

alvocidib = compound: CN1CC[C@H](c2c(O)cc(O)c3c(=O)cc(-c4ccccc4Cl)oc23)[C@H](O)C1 [alvocidib]
Procedure, shortened: as §1

Tubastatin A = compound: CN1CCc2c(c3ccccc3n2Cc2ccc(C(=O)NO)cc2)C1 [Tubastatin A]
Procedure, shortened: as §1

[6] = compound: CNC(=O)C1=CC=CC=C1NC2=NC(=NC=C2Cl)NC3=C(C=C(C=C3)N4CCOCC4)OC
Procedure, shortened: as §1

defactinib = compound: CNC(=O)c1ccc(Nc2ncc(C(F)(F)F)c(NCc3nccnc3N(C)S(C)(=O)=O)n2)cc1 [defactinib]
Procedure, shortened: as §1

[7] = compound: CNc1nc(-c2ccc3c(N)n[nH]c3c2)cc(N2C[C@@H](C(=O)NC3CCCCC3)CC[C@H]2C)n1
Procedure, shortened: as §1

encorafenib = compound: COC(=O)N[C@@H](C)CNc1nccc(-c2cn(C(C)C)nc2-c2cc(Cl)cc(NS(C)(=O)=O)c2F)n1 [encorafenib]
Procedure, shortened: as §1

[8] = compound: COC(=O)[C@H](CCSC)NC(=O)C1=C(C=C(C=C1)NC[C@H](CS)N)C2=CC=CC=C2
Procedure, shortened: as §1

alisertib = compound: COc1cc(Nc2ncc3c(n2)-c2ccc(Cl)cc2C(c2c(F)cccc2OC)=NC3)ccc1C(=O)O [alisertib]
Procedure, shortened: as §1

[9] = compound: COc1cc2nc(-c3cc(F)ccc3O)nc(N[C@@H]3CNC[C@H]3C(C)(C)O)c2cc1OC
Procedure, shortened: as §1

gefitinib = compound: COc1cc2ncnc(Nc3ccc(F)c(Cl)c3)c2cc1OCCCN1CCOCC1 [gefitinib]
Procedure, shortened: as §1

Measured: log2 fold change

FAM114A2 (UniProt Q9NRY5)
inactive: vemurafenib 0.054 | [1] 0.049 | barasertib 0.086 | [2] 0.131 | volasertib -0.013 | [3] 0.014 | [4] 0.049 | [5] -0.039 | saracatinib 0.03 | sotrastaurin 0.033 | alvocidib 0.021 | Tubastatin A 0.134 | [6] 0 | defactinib 0.032 | [7] 0.037 | encorafenib 0.219 | [8] 0.027 | alisertib 0.127 | [9] 0.118 | gefitinib 0.073

EXOC8 (UniProt Q8IYI6)
inactive: vemurafenib 0.001 | [1] 0.026 | barasertib 0.033 | [2] -0.009 | volasertib -0.049 | [3] -0.008 | [4] 0.025 | [5] -0.073 | saracatinib 0.008 | sotrastaurin 0.012 | alvocidib 0.025 | Tubastatin A -0.031 | [6] 0.023 | defactinib 0.002 | [7] -0.001 | encorafenib 0.003 | [8] 0.007 | alisertib -0.023 | [9] 0 | gefitinib -0.025

FAM3C (UniProt Q92520)
inactive: vemurafenib 0.086 | [1] -0.012 | barasertib -0.017 | [2] 0.019 | volasertib -0.001 | [3] -0.008 | [4] 0.008 | [5] -0.032 | saracatinib 0.017 | sotrastaurin -0.003 | alvocidib -0.042 | Tubastatin A 0.049 | [6] -0.033 | defactinib -0.016 | [7] 0.043 | encorafenib 0.015 | [8] -0.014 | alisertib -0.008 | [9] -0.03 | gefitinib 0.038

FAHD2A (UniProt Q96GK7)
inactive: vemurafenib -0.005 | [1] 0.004 | barasertib -0.007 | [2] 0.032 | volasertib 0.002 | [3] -0.028 | [4] -0.037 | [5] 0.054 | saracatinib -0.02 | sotrastaurin -0.016 | alvocidib -0.011 | Tubastatin A 0.008 | [6] -0.008 | defactinib -0.031 | [7] 0.018 | encorafenib -0.03 | [8] -0.034 | alisertib 0.028 | [9] 0.011 | gefitinib -0.012

FAM3A (UniProt P98173)
inactive: vemurafenib 0.046 | [1] -0.012 | barasertib -0.022 | [2] 0.006 | volasertib 0.045 | [3] -0.02 | [4] -0.03 | [5] 0.055 | saracatinib -0.016 | sotrastaurin -0.011 | alvocidib 0.057 | Tubastatin A 0.113 | [6] -0.009 | defactinib 0.076 | [7] -0.018 | encorafenib 0.019 | [8] -0.051 | alisertib -0.032 | [9] 0.018 | gefitinib -0.009

EXOSC6 (UniProt Q5RKV6)
inactive: vemurafenib -0.017 | [1] 0.036 | barasertib -0.018 | [2] 0.007 | volasertib 0.02 | [3] 0.01 | [4] -0.029 | [5] 0.043 | saracatinib 0.032 | sotrastaurin -0.032 | alvocidib 0.015 | Tubastatin A 0.056 | [6] 0.026 | defactinib -0.008 | [7] 0.049 | encorafenib -0.014 | [8] -0.028 | alisertib 0.033 | [9] 0.007 | gefitinib -0.042

FAM76A isoform 3 (UniProt Q8TAV0)
inactive: vemurafenib 0.059 | [1] -0.005 | barasertib -0.117 | [2] 0.03 | volasertib -0.066 | [3] -0.015 | [4] -0.116 | [5] 0.047 | saracatinib 0.019 | sotrastaurin -0.051 | alvocidib -0.033 | Tubastatin A 0.094 | [6] -0.025 | defactinib 0.065 | [7] -0.091 | encorafenib -0.015 | [8] -0.145 | alisertib -0.057 | [9] -0.009 | gefitinib -0.139

FADS1, A0A0A0MR51
inactive: vemurafenib -0.041 | [1] 0.145 | barasertib -0.018 | [2] 0.02 | volasertib -0.187 | [3] -0.062 | [4] -0.021 | [5] -0.078 | saracatinib -0.026 | sotrastaurin -0.037 | alvocidib 0.03 | Tubastatin A 0.1 | [6] 0.158 | defactinib 0.084 | [7] 0.011 | encorafenib -0.055 | [8] 0.03 | alisertib -0.008 | [9] -0.067 | gefitinib -0.001

EXOSC4 (UniProt Q9NPD3)
inactive: vemurafenib -0.018 | [1] 0.03 | barasertib -0.019 | [2] 0.022 | volasertib 0.022 | [3] -0.038 | [4] -0.033 | [5] 0.061 | saracatinib -0.027 | sotrastaurin 0.012 | alvocidib -0.009 | Tubastatin A 0.047 | [6] -0.013 | defactinib 0.017 | [7] -0.018 | encorafenib 0.031 | [8] -0.06 | alisertib -0.032 | [9] 0.018 | gefitinib -0.015

EXOSC3 (UniProt Q9NQT5)
inactive: vemurafenib 0.005 | [1] 0.004 | barasertib 0.017 | [2] 0.008 | volasertib -0.025 | [3] -0.067 | [4] -0.106 | [5] 0.066 | saracatinib -0.023 | sotrastaurin 0.008 | alvocidib -0.036 | Tubastatin A -0.025 | [6] 0.018 | defactinib 0.073 | [7] 0.058 | encorafenib 0.015 | [8] 0.042 | alisertib 0.035 | [9] 0.039 | gefitinib -0.012

FAM160B1 (UniProt Q5W0V3)
inactive: vemurafenib -0.002 | [1] 0.022 | barasertib 0.015 | [2] 0.042 | volasertib -0.017 | [3] 0.008 | [4] -0.07 | [5] 0.001 | saracatinib 0.004 | sotrastaurin 0.044 | alvocidib -0.024 | Tubastatin A -0.03 | [6] 0.017 | defactinib -0.012 | [7] 0.011 | encorafenib 0.069 | [8] -0.061 | alisertib -0.012 | [9] 0.033 | gefitinib 0

ETF1 (UniProt P62495)
inactive: vemurafenib 0.009 | [1] 0.004 | barasertib -0.013 | [2] -0.028 | volasertib 0.003 | [3] -0.029 | [4] 0.006 | [5] -0.008 | saracatinib -0.004 | sotrastaurin 0.018 | alvocidib 0.008 | Tubastatin A 0.008 | [6] -0.007 | defactinib -0.022 | [7] -0.014 | encorafenib -0.023 | [8] 0.023 | alisertib 0.004 | [9] 0.012 | gefitinib -0.014

Random excerpt: 2 entries already listed
EXOSC3 (UniProt Q9NQT5)
inactive: vemurafenib 0.005 | [1] 0.004 | barasertib 0.017 | [2] 0.008 | volasertib -0.025 | [3] -0.067 | [4] -0.106 | [5] 0.066 | saracatinib -0.023 | sotrastaurin 0.008 | alvocidib -0.036 | Tubastatin A -0.025 | [6] 0.018 | defactinib 0.073 | [7] 0.058 | encorafenib 0.015 | [8] 0.042 | alisertib 0.035 | [9] 0.039 | gefitinib -0.012

ETF1 (UniProt P62495)
inactive: vemurafenib 0.009 | [1] 0.004 | barasertib -0.013 | [2] -0.028 | volasertib 0.003 | [3] -0.029 | [4] 0.006 | [5] -0.008 | saracatinib -0.004 | sotrastaurin 0.018 | alvocidib 0.008 | Tubastatin A 0.008 | [6] -0.007 | defactinib -0.022 | [7] -0.014 | encorafenib -0.023 | [8] 0.023 | alisertib 0.004 | [9] 0.012 | gefitinib -0.014

Following part

ERICH1 (UniProt Q86X53)
inactive: vemurafenib -0.059 | [1] 0.069 | barasertib 0.063 | [2] 0.002 | volasertib -0.028 | [3] -0.016 | [4] 0.009 | [5] -0.067 | saracatinib 0.037 | sotrastaurin 0.099 | alvocidib 0.041 | Tubastatin A -0.012 | [6] -0.107 | defactinib 0.095 | [7] 0.012 | encorafenib -0.07 | [8] -0.018 | alisertib -0.106 | [9] 0.072 | gefitinib 0.105

ETFB (UniProt P38117)
inactive: vemurafenib 0.018 | [1] -0.024 | barasertib -0.009 | [2] 0.028 | volasertib 0.017 | [3] -0.013 | [4] -0.099 | [5] 0.049 | saracatinib 0.001 | sotrastaurin -0.01 | alvocidib -0.026 | Tubastatin A 0.076 | [6] -0.053 | defactinib -0.037 | [7] 0.026 | encorafenib -0.05 | [8] -0.03 | alisertib 0.019 | [9] -0.014 | gefitinib 0.011

ERO1B (UniProt Q86YB8)
inactive: vemurafenib 0.117 | [1] 0.058 | barasertib 0.037 | [2] 0.004 | volasertib -0.016 | [3] -0.004 | [4] 0.053 | [5] 0.162 | saracatinib 0.079 | sotrastaurin 0.058 | alvocidib -0.082 | Tubastatin A 0.082 | [6] -0.04 | defactinib -0.002 | [7] 0.008 | encorafenib 0.057 | [8] 0.045 | alisertib -0.005 | [9] 0.026 | gefitinib 0.008

EXOC5 (UniProt O00471)
inactive: vemurafenib 0.033 | [1] 0.03 | barasertib 0.044 | [2] -0.036 | volasertib -0.081 | [3] 0.02 | [4] 0.068 | [5] -0.115 | saracatinib 0.044 | sotrastaurin 0.022 | alvocidib 0.004 | Tubastatin A -0.064 | [6] -0.011 | defactinib 0.007 | [7] -0.07 | encorafenib 0.029 | [8] -0.102 | alisertib 0.029 | [9] -0.025 | gefitinib 0.002
